# Results deposited as PubChem BioAssay AID1508597 (Cure First, 2020)
# Aim: 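Survival screen with siRNA in ovarian cancer cells derived from patients, with or without rucaparib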 (primary screen)
# Cells: human ovarian carcinoma lines grown from tumours: OCI-P5x (papillary serous) and OCI-C5x (clear cell)
# Knock-down reagent: siRNA pool against human genes, 1.25 pmol siRNA per well
# Duration: 72 h or 96 h, depending on the cell culture
# Challenge: rucaparib 20 µM (about IC30) or vehicle, present until read-out
# Rucaparib or vehicle: Rucaparib
# Cell line: OCI-C5x (clear cell)
# Read-out: 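Luminescent ATP-based viability assay read 72 or 96 h after transfection, depending on culture, given as normalised percent viability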
# Scale: viability, normalised: higher = more viable cells remaining
# Rule for the call: 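a well counts as a hit if its normalised viability is under 80 percent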
# Meaning of the calls: active = viability under 80%; inactive = viability 80% or more
# Shown is a random part of the about 2,100 reagents, in one setting of the screen. 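Calls flag viability under 80% in either arm, not effects specific to rucaparib; the reference for percent is not stated.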 Entries without a mark were called inactive. Some reagents were tested in more than one well and are listed for each. Reagent sequences are not shown. Not given: the 100% reference.
target,technical replicate,"viability, normalised (%)"
LY6E,1,49.6 (active)
LY6E,2,37.9 (active)
LY6E,3,49.5 (active)
RAF1,1,57.5 (active)
RAF1,2,57 (active)
RAF1,3,51.7 (active)
SAFB,1,65.7 (active)
SAFB,2,37.1 (active)
SAFB,3,43.4 (active)
ERCC8,1,58.9 (active)
ERCC8,2,64.8 (active)
ERCC8,3,54.2 (active)
DDX53,1,47 (active)
DDX53,2,38.2 (active)
DDX53,3,36.4 (active)
DEK,1,42 (active)
DEK,2,31.6 (active)
DEK,3,28.4 (active)
DHX29,1,46.2 (active)
DHX29,2,59.2 (active)
DHX29,3,43 (active)
NEK1,1,41.7 (active)
NEK1,2,64 (active)
NEK1,3,53.2 (active)
DDX46,1,64.2 (active)
DDX46,2,54.2 (active)
DDX46,3,48.4 (active)
ELP4,1,55.1 (active)
ELP4,2,41.2 (active)
ELP4,3,56.9 (active)
SHH,1,45.6 (active)
SHH,2,36.7 (active)
SHH,3,36.1 (active)
ACVR1,1,59.1 (active)
ACVR1,2,66.8 (active)
ACVR1,3,50.7 (active)

Next part (8 carried over from the part before).
target,technical replicate,"viability, normalised (%)"
ELP4,2,41.2 (active)
ELP4,3,56.9 (active)
SHH,1,45.6 (active)
SHH,2,36.7 (active)
SHH,3,36.1 (active)
ACVR1,1,59.1 (active)
ACVR1,2,66.8 (active)
ACVR1,3,50.7 (active)
SOX9,1,60.9 (active)
SOX9,2,53.2 (active)
SOX9,3,50.2 (active)
PRKAR2B,1,86
PRKAR2B,2,80.1
PRKAR2B,3,63.2 (active)
MAP3K13,1,57.6 (active)
MAP3K13,1,37.8 (active)
MAP3K13,2,63.3 (active)
MAP3K13,2,62.8 (active)
MAP3K13,3,42.2 (active)
MAP3K13,3,69.1 (active)
HMGN2,1,57.2 (active)
HMGN2,2,50.6 (active)
HMGN2,3,49.3 (active)
SETDB2,1,34.1 (active)
SETDB2,2,37.7 (active)
SETDB2,3,30 (active)
IP6K1,1,35 (active)
IP6K1,2,53.3 (active)
IP6K1,3,36.9 (active)
